The other results are listed elsewhere or left out.
Columns and labels:
Experiment in all cases: log2 fold change, soluble protein after heating vs DMSO (PISA); higher = thermal stabilisation; K562 cells, 10 uM, 30 min; active = over 0.2 and 3.5 SD of the protein, either way, in both replicates (recomputed)
[1] = compound: Cc1ccc(NC(=O)c2ccc(CN3CC[C@H](N(C)C)C3)c(C(F)(F)F)c2)cc1Nc1nccc(-c2cncnc2)n1 [bafetinib]
Procedure, shortened: (§1)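 For each measurement, 10 μM compound was applied for 30 min to K562 cells at 2×10^6 cells/mL. Aliquots were heated for 3 min across 48°C-58°C, pooled, and extracted in PBS with 0.5% NP-40 at 4°C; the supernatant after 21,000xg for 90 min was soluble protein. This was quantified by TMTpro 16plex LC-MS/MS with channel sums equalised, and thermal stability was reported relative to control samples from duplicates, on a log2 fold-change scale.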

By UniProt entry, the sequences of proteins in these tests, tags left out. Where a name states a change or a piece, a line headed by the entry shows the natural chain unless it says otherwise.
UniProt Q14790: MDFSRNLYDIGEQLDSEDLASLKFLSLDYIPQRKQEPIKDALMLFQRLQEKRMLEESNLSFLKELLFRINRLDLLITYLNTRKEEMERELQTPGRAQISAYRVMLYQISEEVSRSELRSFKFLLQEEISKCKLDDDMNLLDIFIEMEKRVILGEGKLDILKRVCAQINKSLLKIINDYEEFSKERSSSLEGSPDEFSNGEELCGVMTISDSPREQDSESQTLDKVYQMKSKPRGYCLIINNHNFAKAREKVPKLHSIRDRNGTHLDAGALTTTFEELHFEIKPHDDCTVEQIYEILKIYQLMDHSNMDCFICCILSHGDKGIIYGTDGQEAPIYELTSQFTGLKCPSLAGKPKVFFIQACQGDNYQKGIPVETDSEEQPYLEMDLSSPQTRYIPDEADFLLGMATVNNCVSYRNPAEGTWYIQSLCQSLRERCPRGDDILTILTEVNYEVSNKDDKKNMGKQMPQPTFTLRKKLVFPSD
UniProt P24863: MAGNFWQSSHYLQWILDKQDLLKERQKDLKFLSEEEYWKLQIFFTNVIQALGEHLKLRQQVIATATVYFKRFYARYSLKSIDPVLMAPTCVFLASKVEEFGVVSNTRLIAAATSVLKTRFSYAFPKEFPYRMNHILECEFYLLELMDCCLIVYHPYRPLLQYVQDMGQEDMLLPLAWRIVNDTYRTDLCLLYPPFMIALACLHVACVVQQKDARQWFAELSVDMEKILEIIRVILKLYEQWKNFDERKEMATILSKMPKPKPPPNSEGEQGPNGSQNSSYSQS
UniProt P24864, whole entry, looked up: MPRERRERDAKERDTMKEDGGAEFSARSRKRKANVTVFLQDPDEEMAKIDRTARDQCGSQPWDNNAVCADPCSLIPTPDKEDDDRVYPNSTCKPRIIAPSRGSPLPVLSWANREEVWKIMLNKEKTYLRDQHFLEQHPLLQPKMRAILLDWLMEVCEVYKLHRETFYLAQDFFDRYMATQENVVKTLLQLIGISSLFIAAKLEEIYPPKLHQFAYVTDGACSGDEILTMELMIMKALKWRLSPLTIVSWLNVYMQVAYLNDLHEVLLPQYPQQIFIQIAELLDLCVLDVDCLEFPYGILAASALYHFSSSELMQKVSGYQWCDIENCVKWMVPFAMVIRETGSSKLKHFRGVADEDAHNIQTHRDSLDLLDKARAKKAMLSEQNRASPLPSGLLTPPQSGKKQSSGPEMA
UniProt Q4G0I0: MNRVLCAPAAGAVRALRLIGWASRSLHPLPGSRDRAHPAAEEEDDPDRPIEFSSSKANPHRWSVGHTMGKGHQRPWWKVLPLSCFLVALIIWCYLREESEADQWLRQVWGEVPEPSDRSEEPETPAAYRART
UniProt P27701: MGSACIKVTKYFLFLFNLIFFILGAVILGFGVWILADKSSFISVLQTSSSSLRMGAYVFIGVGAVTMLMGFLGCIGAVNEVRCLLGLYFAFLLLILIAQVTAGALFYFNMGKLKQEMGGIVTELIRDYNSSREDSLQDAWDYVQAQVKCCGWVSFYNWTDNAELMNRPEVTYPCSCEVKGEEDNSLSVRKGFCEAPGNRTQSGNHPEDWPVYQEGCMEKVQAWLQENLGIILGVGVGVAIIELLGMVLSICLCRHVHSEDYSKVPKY
UniProt Q15834: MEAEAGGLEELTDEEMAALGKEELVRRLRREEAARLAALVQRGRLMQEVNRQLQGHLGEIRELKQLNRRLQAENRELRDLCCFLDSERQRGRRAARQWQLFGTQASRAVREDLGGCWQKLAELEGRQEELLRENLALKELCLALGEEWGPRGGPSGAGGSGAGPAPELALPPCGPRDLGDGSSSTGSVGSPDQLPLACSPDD
UniProt O95273: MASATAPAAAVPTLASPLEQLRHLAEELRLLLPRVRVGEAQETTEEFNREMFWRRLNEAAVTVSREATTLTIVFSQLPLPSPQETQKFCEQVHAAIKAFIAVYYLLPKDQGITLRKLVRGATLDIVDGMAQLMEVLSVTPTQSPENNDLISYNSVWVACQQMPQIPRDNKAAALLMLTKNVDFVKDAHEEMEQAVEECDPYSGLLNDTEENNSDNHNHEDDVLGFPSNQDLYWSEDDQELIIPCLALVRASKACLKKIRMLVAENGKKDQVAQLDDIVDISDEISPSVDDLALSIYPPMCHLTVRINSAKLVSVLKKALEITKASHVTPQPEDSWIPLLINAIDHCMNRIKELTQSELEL
UniProt Q04900: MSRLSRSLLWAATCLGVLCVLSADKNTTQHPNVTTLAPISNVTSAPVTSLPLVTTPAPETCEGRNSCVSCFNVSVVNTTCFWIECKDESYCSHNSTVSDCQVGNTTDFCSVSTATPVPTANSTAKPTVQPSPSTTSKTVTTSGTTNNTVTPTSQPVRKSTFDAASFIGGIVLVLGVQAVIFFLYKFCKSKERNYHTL
UniProt A6NKD9: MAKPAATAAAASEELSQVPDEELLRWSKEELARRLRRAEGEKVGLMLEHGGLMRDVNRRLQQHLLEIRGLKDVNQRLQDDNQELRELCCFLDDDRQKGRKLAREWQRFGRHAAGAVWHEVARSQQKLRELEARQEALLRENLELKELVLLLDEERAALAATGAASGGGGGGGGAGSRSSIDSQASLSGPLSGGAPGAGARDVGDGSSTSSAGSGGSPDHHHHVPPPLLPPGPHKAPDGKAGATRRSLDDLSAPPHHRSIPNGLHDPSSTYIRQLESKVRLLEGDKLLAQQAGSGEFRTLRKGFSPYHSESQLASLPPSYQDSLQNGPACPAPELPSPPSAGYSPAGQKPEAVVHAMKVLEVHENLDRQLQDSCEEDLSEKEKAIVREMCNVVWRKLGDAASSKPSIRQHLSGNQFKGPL
UniProt P30305: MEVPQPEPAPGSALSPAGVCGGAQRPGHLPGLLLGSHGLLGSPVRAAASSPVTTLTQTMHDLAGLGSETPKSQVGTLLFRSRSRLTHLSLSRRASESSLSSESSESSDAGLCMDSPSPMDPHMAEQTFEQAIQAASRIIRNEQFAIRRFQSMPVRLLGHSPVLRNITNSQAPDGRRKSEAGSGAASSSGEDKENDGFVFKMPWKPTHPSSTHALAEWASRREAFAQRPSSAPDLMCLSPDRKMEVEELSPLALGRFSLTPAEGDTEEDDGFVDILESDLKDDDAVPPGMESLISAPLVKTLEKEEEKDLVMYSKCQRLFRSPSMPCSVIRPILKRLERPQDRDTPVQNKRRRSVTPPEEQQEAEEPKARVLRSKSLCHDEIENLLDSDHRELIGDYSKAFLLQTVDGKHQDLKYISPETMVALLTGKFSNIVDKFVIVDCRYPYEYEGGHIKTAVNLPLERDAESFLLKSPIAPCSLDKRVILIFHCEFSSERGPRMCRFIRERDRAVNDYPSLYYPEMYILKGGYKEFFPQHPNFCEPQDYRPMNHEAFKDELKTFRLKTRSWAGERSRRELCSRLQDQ
UniProt Q8TCZ2: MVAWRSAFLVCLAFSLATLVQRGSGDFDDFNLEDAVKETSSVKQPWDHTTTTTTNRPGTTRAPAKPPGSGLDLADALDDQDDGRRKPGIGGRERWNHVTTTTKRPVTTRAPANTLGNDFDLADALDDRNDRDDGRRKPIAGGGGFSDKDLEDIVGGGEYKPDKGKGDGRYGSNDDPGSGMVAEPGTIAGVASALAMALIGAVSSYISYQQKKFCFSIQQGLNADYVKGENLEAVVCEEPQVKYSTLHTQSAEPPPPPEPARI
UniProt O60508: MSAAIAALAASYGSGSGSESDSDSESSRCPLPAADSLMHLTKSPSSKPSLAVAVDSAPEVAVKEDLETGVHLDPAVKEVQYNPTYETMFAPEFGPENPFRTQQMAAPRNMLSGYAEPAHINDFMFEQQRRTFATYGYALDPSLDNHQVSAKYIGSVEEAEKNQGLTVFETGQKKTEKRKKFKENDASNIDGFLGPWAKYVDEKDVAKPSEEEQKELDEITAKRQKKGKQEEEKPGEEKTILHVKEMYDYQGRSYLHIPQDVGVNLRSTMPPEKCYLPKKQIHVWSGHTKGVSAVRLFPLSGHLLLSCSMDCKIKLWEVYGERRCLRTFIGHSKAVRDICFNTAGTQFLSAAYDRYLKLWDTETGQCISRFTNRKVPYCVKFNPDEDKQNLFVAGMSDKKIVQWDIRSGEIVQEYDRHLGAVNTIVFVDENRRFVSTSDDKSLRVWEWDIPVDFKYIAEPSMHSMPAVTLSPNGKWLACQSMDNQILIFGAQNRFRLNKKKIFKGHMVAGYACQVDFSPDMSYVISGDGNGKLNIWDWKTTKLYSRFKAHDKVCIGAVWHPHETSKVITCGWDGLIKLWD
UniProt O43439: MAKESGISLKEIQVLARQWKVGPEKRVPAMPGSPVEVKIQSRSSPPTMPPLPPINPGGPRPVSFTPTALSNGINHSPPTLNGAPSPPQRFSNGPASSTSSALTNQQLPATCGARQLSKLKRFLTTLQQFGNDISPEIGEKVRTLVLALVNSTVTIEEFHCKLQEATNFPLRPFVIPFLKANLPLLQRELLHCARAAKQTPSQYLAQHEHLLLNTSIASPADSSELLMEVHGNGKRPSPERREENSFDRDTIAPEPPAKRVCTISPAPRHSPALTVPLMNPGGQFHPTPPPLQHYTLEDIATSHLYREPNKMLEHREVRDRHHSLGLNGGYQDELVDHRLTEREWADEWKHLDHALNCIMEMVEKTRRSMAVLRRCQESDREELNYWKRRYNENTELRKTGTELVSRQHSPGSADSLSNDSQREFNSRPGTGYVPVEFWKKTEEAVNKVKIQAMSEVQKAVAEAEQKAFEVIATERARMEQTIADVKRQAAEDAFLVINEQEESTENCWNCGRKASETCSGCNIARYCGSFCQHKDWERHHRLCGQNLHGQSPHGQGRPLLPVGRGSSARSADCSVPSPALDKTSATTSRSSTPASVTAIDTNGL
UniProt Q8N7R7: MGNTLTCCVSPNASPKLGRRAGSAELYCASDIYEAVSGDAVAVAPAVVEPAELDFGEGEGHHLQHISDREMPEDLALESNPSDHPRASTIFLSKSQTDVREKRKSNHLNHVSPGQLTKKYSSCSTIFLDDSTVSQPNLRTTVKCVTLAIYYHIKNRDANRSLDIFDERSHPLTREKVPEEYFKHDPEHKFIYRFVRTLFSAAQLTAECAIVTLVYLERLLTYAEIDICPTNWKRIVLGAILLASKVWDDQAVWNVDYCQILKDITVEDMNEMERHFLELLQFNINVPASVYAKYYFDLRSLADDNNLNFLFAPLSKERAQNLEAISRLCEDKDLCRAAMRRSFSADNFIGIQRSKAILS
UniProt P14209: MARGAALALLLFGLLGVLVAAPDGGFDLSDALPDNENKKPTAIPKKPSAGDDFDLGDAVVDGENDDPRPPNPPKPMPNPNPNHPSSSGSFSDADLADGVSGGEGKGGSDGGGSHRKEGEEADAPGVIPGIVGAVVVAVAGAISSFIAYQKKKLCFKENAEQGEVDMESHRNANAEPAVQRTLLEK
UniProt Q9BSQ5: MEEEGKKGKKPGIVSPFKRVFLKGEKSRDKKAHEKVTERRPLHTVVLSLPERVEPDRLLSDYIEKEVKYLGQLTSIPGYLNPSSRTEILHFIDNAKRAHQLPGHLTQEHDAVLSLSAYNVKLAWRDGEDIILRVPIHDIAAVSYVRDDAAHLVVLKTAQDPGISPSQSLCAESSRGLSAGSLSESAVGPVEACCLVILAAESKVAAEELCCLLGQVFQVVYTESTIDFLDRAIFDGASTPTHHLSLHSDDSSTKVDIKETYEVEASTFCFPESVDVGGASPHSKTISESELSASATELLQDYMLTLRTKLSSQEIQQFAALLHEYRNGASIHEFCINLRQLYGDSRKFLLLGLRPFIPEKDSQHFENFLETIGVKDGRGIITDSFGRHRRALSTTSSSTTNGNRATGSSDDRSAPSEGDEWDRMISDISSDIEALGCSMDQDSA

[2] = compound: Cc1cccc(CC(=O)N2CCc3c2ccc(-c2cn(C)c4ncnc(N)c24)c3F)n1
Procedure, shortened: as §1

[3] = compound: Cc1cn(-c2cc(NC(=O)c3ccc(C)c(Nc4nccc(-c5cccnc5)n4)c3)cc(C(F)(F)F)c2)cn1 [nilotinib]
Procedure, shortened: as §1

[4] = compound: Cc1nc(Nc2n[nH]c3c2CN(C(=O)N[C@H](CN(C)C)c2ccccc2)C3(C)C)c2sccc2n1
Procedure, shortened: as §1

[5] = compound: Cc1nc(Nc2ncc(C(=O)Nc3c(C)cccc3Cl)s2)cc(N2CCN(CCO)CC2)n1 [dasatinib]
Procedure, shortened: as §1

[6] = compound: Cc1ncc(-c2ccnc(Nc3ccc(S(C)(=O)=O)cc3)n2)n1C(C)C
Procedure, shortened: as §1

[7] = compound: Cn1cc(-c2ccc3nnc(C(F)(F)c4ccc5ncccc5c4)n3n2)cn1
Procedure, shortened: as §1

[8] = compound: Cn1cncc1[C@@](N)(c1ccc(Cl)cc1)c1ccc2c(c1)c(-c1cccc(Cl)c1)cc(=O)n2C [tipifarnib]
Procedure, shortened: as §1

[9] = compound: FC(F)(F)c1ccc(/C=C/c2nc(COc3ccc(CCCCn4ccnn4)cc3)co2)cc1 [mubritinib]
Procedure, shortened: as §1

[10] = compound: NC(=O)Nc1cc(-c2cccc(F)c2)sc1C(=O)N[C@H]1CCCNC1
Procedure, shortened: as §1

[11] = compound: NC(=O)c1cnc(N[C@@H]2CCCC[C@@H]2N)nc1Nc1cccc(-n2nccn2)c1
Procedure, shortened: as §1

[12] = compound: NC1(c2ccc(-c3nc4ccn5c(=O)[nH]nc5c4cc3-c3ccccc3)cc2)CCC1
Procedure, shortened: as §1

[13] = compound: NCC(=O)Nc1ccc(-n2nc(C(F)(F)F)cc2-c2ccc3c(ccc4ccccc43)c2)cc1
Procedure, shortened: as §1

[14] = compound: Nc1ccccc1NC(=O)c1ccc(CNC(=O)OCc2cccnc2)cc1 [entinostat]
Procedure, shortened: as §1

[15] = compound: O=C(CCCCCCC(=O)Nc1ccccc1)NO [vorinostat]
Procedure, shortened: as §1

[16] = compound: O=C(CCCCCCNC(=O)c1cnc(N(c2ccccc2)c2ccccc2Cl)nc1)NO [citarinostat]
Procedure, shortened: as §1

[17] = compound: O=C(O)c1ccc2c(c1)nc(Nc1cccc(Cl)c1)c1ccncc12 [silmitasertib]
Procedure, shortened: as §1

[18] = compound: O=C1NC(=O)C(c2cnc3ccccn23)=C1c1cn2c3c(cc(F)cc13)CN(C(=O)N1CCCCC1)CC2
Procedure, shortened: as §1

[19] = compound: c1cc(OCCN2CCCCC2)cc(-c2n[nH]c3ccc(-c4nnc[nH]4)cc23)c1
Procedure, shortened: as §1

[20] = compound: Cn1cc(-c2ccc3c(c2)CCN3C(=O)Cc2cccc(C(F)(F)F)c2)c2c(N)ncnc21
Procedure, shortened: as §1

Measured: log2 fold change

CASP8 isoform 9 (UniProt Q14790)
inactive: [1] 0.072 | [2] 0.093 | [3] -0.183 | [4] 0.018 | [5] -0.039 | [6] 0.069 | [7] -0.066 | [8] -0.094 | [9] -0.095 | [10] -0.06 | [11] -0.051 | [12] -0.186 | [13] -0.151 | [14] -0.119 | [15] -0.021 | [16] -0.048 | [17] 0.12 | [18] 0.008 | [19] 0.009

CCNC (UniProt P24863)
inactive: [1] 0.031 | [2] 0.055 | [5] -0.074 | [20] -0.091 | [7] -0.015 | [9] -0.016 | [10] -0.032 | [11] -0.105 | [12] -0.017 | [13] -0.033 | [14] 0.04 | [15] -0.039 | [17] 0.183 | [18] 0.039

CCNE1 (UniProt P24864)
inactive: [1] 0.045 | [2] 0.212 | [5] -0.173 | [7] -0.009 | [8] 0.049 | [11] -0.057 | [13] -0.048 | [15] 0.055 | [18] -0.051

CCSMST1 (UniProt Q4G0I0)
inactive: [1] -0.131 | [3] 0.024 | [4] -0.028 | [5] 0.04 | [6] -0.031 | [20] 0.12 | [7] 0.049 | [8] -0.02 | [9] 0.041 | [10] -0.013 | [11] 0.152 | [12] -0.002 | [13] 0.003 | [14] 0.068 | [16] 0.016 | [17] -0.041 | [18] -0.028 | [19] -0.051

CD82 (UniProt P27701)
inactive: [1] -0.098 | [2] -0.135 | [3] -0.118 | [4] -0.193 | [6] -0.173 | [7] -0.044 | [9] 0.063 | [10] -0.017 | [12] -0.12 | [14] -0.022 | [15] 0.225 | [17] -0.054 | [18] -0.062

2 entries picked at random from the list so far:
CCNC (UniProt P24863)
inactive: [1] 0.031 | [2] 0.055 | [5] -0.074 | [20] -0.091 | [7] -0.015 | [9] -0.016 | [10] -0.032 | [11] -0.105 | [12] -0.017 | [13] -0.033 | [14] 0.04 | [15] -0.039 | [17] 0.183 | [18] 0.039

CCNE1 (UniProt P24864)
inactive: [1] 0.045 | [2] 0.212 | [5] -0.173 | [7] -0.009 | [8] 0.049 | [11] -0.057 | [13] -0.048 | [15] 0.055 | [18] -0.051

More records.

CCDC85B (UniProt Q15834)
inactive: [1] -0.036 | [2] -0.015 | [5] 0.016 | [20] 0.26 | [8] -0.111 | [9] -0.29 | [10] 0.152 | [11] -0.266 | [12] 0.144 | [13] 0.026 | [14] -0.016 | [15] -0.038 | [16] -0.042 | [17] -0.112 | [19] -0.205

CCNDBP1 (UniProt O95273)
inactive: [1] 0.059 | [2] -0.017 | [3] -0.19 | [4] 0.028 | [5] 0.023 | [6] 0.21 | [20] -0.055 | [7] -0.197 | [9] -0.045 | [10] 0.046 | [11] -0.027 | [12] -0.091 | [13] 0.069 | [14] -0.036 | [15] -0.069 | [16] 0.05 | [17] 0.087 | [19] -0.084

CD164 (UniProt Q04900)
inactive: [1] -0.167 | [2] -0.268 | [3] -0.196 | [4] -0.013 | [6] -0.143 | [20] 0.024 | [7] -0.174 | [9] 0.164 | [10] -0.076 | [11] -0.228 | [12] 0.162 | [13] -0.074 | [14] 0.025 | [15] 0.167 | [16] 0.06 | [17] -0.075 | [18] -0.111 | [19] -0.215

CCDC85C (UniProt A6NKD9)
inactive: [1] 0 | [2] -0.243 | [5] 0.077 | [20] -0.042 | [7] 0.137 | [8] 0.02 | [9] 0.036 | [10] -0.127 | [11] 0.009 | [12] -0.022 | [13] 0.022 | [14] -0.235 | [15] 0.087 | [16] -0.006 | [17] 0.136 | [18] -0.035 | [19] -0.1

CDC25B isoform 4 (UniProt P30305)
inactive: [1] 0.081 | [2] -0.022 | [4] -0.051 | [6] -0.206 | [20] 0.095 | [7] -0.03 | [8] 0.022 | [9] 0.074 | [10] -0.04 | [11] -0.07 | [12] -0.157 | [13] 0.088 | [14] 0.047 | [15] 0.071 | [16] 0.115 | [17] 0.054 | [18] 0.014 | [19] -0.123
active: [3] -0.513

CD99L2 isoform 5 (UniProt Q8TCZ2)
inactive: [1] -0.027 | [2] -0.002 | [3] 0.059 | [4] -0.15 | [5] -0.086 | [6] 0.045 | [20] 0.106 | [8] 0.072 | [9] -0.048 | [12] 0.139 | [13] -0.028 | [15] -0.037 | [17] 0.001 | [18] -0.079

CDC37 (UniProt K7EL68)
inactive: [1] -0.068 | [3] 0.042 | [4] -0.102 | [5] -0.063 | [6] 0.15 | [20] -0.026 | [7] 0.098 | [8] -0.043 | [10] -0.062 | [11] -0.048 | [13] 0 | [14] -0.02 | [16] -0.153 | [18] -0.025 | [19] -0.165

CDC40 (UniProt O60508)
inactive: [1] 0.166 | [2] -0.092 | [3] 0.049 | [4] 0.272 | [5] 0.14 | [6] 0.399 | [20] -0.422 | [8] 0.205 | [9] -0.33 | [10] 0.095 | [11] 0.132 | [12] 0.144 | [13] 0.12 | [14] -0.044 | [15] -0.222 | [16] -0.234 | [17] 0.171 | [18] 0.202 | [19] -0.276

CBFA2T2 isoform 4 (UniProt O43439)
inactive: [1] 0.142 | [2] -0.041 | [15] 0.028

CCNYL1 (UniProt Q8N7R7)
inactive: [1] 0.184 | [2] 0.043 | [3] -0.132 | [4] 0.04 | [5] -0.021 | [6] 0.05 | [20] 0.099 | [9] -0.156 | [10] -0.111 | [11] 0.011 | [12] -0.1 | [14] 0.021 | [15] -0.061 | [16] -0.038 | [17] 0.049 | [18] -0.072 | [19] -0.18

CD99 (UniProt P14209)
inactive: [1] -0.004 | [2] -0.005 | [3] 0.011 | [4] -0.039 | [6] -0.029 | [20] 0.037 | [8] 0.098 | [9] 0.023 | [10] -0.075 | [11] 0.299 | [12] 0.062 | [13] 0.182 | [14] -0.021 | [15] -0.007 | [16] 0.018 | [17] -0.062 | [18] -0.033 | [19] 0.077

CCM2 isoform 2 (UniProt Q9BSQ5)
active: [14] 0.326
inactive: [1] -0.059 | [2] -0.038 | [5] -0.003 | [20] 0.043 | [7] -0.021 | [8] -0.024 | [9] -0.061 | [10] -0.103 | [12] -0.09 | [13] -0.067 | [15] -0.038 | [16] -0.073 | [17] 0.048 | [18] -0.136 | [19] 0.069

CCDC186 (UniProt Q7Z3E2)
inactive: [1] -0.142 | [2] -0.044 | [3] 0.046 | [4] 0.091 | [5] -0.07 | [6] 0.01 | [9] -0.015 | [10] -0.001 | [12] 0.18 | [13] 0.23 | [14] 0.019 | [15] -0.068 | [16] -0.039 | [17] 0.099 | [19] -0.01
